No constants are given. Whether binding was seen depends on the method and setting. Binding seen in cells or lysates may run through a third protein. A yes stands for co-enrichment or nearness to the bait. Other partners may have been found. Each block holds one substance with its values, some of them ahead of it.
Tests used:
Experiment in all cases: affinity purification with mass spectrometry
[1] = target: PbCUL4-HA (triple HA-tagged P. berghei Cullin-4) (P. berghei)
[2] = target: PbDDB1-HA (HA-tagged P. berghei DDB1) (P. berghei)
[3] = target: PfCUL4-HA (HA-tagged P. falciparum Cullin-4) (P. falciparum) (UniProt C6KTD3)
[4] = target: PbWIG1-HA (HA-tagged P. berghei WIG1) (P. berghei)

Substance: P. berghei WD-repeat protein Important for Gametogenesis 1 (WIG1) (from UniProt A0A509AQC3)
binding [1]: binds | binding [2]: binds

Substance: P. falciparum ubiquitin carboxyl-terminal hydrolase PfUCH7 (from UniProt Q8IBJ1) (enzyme)
binding [3]: binds

Substance: P. falciparum WD-repeat protein Important for Gametogenesis 1 (WIG1) (from UniProt O97292)
binding [3]: binds

Substance: P. falciparum protein containing WD domains PF3D7_1410300 (from UniProt Q8ILZ2)
binding [3]: binds

The next lines start with the values.

binding [4]: binds
Substance: P. berghei RBX1 (from UniProt A0A509AI98)

binding [1]: binds
Substance: P. berghei ubiquitin carboxyl-terminal hydrolase PbUCH7 (from UniProt A0A509AEF7) (enzyme)

binding [4]: binds
Substance: P. berghei DDB1 (from UniProt A0A509AK91)

— doi:10.1101/2023.07.19.549332
